# Data as given in publication PMC7819943, “Rice protein-binding microarrays: a tool to detect cis-acting elements near promoter regions in rice”.
# Amino acid sequences for entries named in this document (tags omitted).
# UniProt Q0JBA9, entry or part of it: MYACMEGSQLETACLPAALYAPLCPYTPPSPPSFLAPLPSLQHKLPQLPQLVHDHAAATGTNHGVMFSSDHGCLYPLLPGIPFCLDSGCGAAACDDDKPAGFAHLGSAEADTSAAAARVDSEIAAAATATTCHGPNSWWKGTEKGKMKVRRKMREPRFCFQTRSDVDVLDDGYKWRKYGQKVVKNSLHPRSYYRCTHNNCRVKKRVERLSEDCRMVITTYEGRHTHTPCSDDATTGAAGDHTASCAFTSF
# The list shows a part of the results.
# Biological target: OsWRKY34 (Oryza sativa, UniProt Q0JBA9 1-250)
# Test: protein-binding microarray (RPBM); PBS, 2% BSA, 51.3 ng/ul salmon testes DNA, 50 uM zinc acetate, 200 nM TF, 25 C, 1 h; high values mean tight binding
# Conditions: protein: recombinant; tags: N-terminal polyhistidine and DsRed monomer fusion (pET32a); label: CyDye5-dUTP incorporated in the synthesized complementary strand; 3' TTTTT single-stranded linker to array surface; dsDNA, one strand shown
# Procedure, shortened: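 Per-feature fluorescence intensity (arbitrary units), read on an Axon 4000B scanner, is the binding signal. Transcription factors carrying an N-terminal polyhistidine tag and DsRed fusion were expressed in E. coli BL21-CodonPlus and purified on Ni–NTA. A custom Agilent array, made double-stranded by primer extension with Cy5-dUTP and blocked with 2% BSA, was incubated with 200 nM protein in PBS, 2% BSA, salmon testes DNA and 50 µM zinc acetate at 25 °C for 1 h and then washed.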
row,Sequence,binding signal
1,TTGTTCCATTTCATATTTGCTTCGTATATATAGTCGATTCCGGAGTCACCTAGTGCAG,8480 fluorescence intensity (a.u.)
2,TCTGTGTGCTGCTGCCTCTGCAATTCTGAAACCGATCTCCCGGAGTCACCTAGTGCAG,9350 fluorescence intensity (a.u.)
3,GTGGGGTTTCATCGTTCAATGAGTTTATTCATGAACTCTCCGGAGTCACCTAGTGCAG,8880 fluorescence intensity (a.u.)
4,TATCCAAGGTTGTCAGTATCCCGATTCGTATCCCAGTATCCGGAGTCACCTAGTGCAG,12300 fluorescence intensity (a.u.)
5,ACTTTGCTCCTCTTCATGCCATCGCCGTTGAAGCTAACAACGGAGTCACCTAGTGCAG,8640 fluorescence intensity (a.u.)
6,AGGTGATGTTTGGGGTCGTTGGGTTGGTCCGCGTTCTTGCCGGAGTCACCTAGTGCAG,17400 fluorescence intensity (a.u.)
7,ATGTCGCTTTCCCACCTCTGCCCACCCTCACATGCCCCGTCGGAGTCACCTAGTGCAG,8640 fluorescence intensity (a.u.)
8,CCTCCCCGCATCCGGCCTCTGTCTTCGCCGCGCATGGCGGCGGAGTCACCTAGTGCAG,9600 fluorescence intensity (a.u.)
9,GGGTTAGCAATTCTCTAGAGTTTTTTTTCCTTTCGGCATACGGAGTCACCTAGTGCAG,9880 fluorescence intensity (a.u.)
10,GTAAGGGAGAGGGAGGGGTCATACCAACGTCCTTAAAAAACGGAGTCACCTAGTGCAG,10000 fluorescence intensity (a.u.)
11,CACTGGGTGTACTGGCTCGGTCCCTTCATCGGCGCCGGCCCGGAGTCACCTAGTGCAG,8420 fluorescence intensity (a.u.)
12,ACTTAGATTTTGCTCGTTGCTTTCAATCTCCATTACTGCTCGGAGTCACCTAGTGCAG,9280 fluorescence intensity (a.u.)
13,AAATCCACTTCACCTAGCAGCCGCTCTCACCTCCACGCGCCGGAGTCACCTAGTGCAG,10200 fluorescence intensity (a.u.)
14,AATTCTGGCGGGGTAGTTTTCTACATCATACACTGTGTAGCGGAGTCACCTAGTGCAG,8090 fluorescence intensity (a.u.)
15,GCTGATGACTTTTCTCCCGGTTTCATATTTTCTTTTAGAACGGAGTCACCTAGTGCAG,14100 fluorescence intensity (a.u.)
16,ATATATATATATATATATATATATATATATATACACAAGACGGAGTCACCTAGTGCAG,10500 fluorescence intensity (a.u.)
17,CGTCGCGTTCGCGTGCGAGGTGGTGGTGGTGGTGGCTGTACGGAGTCACCTAGTGCAG,9000 fluorescence intensity (a.u.)
18,GTTTTTTTGGTTGCAATGGAGTATTTCAGTTTGTAACATTCGGAGTCACCTAGTGCAG,8440 fluorescence intensity (a.u.)
19,GGGAGTAGTCTTCTCCTCGGTCCACGACAGTTCACATTACCGGAGTCACCTAGTGCAG,9110 fluorescence intensity (a.u.)
20,CATTTTTTTTTGCTATATTTCTCTCGATTCTTCTGTTCTTCGGAGTCACCTAGTGCAG,12500 fluorescence intensity (a.u.)
21,CCGCCGGCGACGGCCTCTCACATGCTCTGCAGCTGCAACTCGGAGTCACCTAGTGCAG,9060 fluorescence intensity (a.u.)

# Looked up above:
# binding signal with AAATCCACTTCACCTAGCAGCCGCTCTCACCTCCACGCGCCGGAGTCACCTAGTGCAG reads 10200 fluorescence intensity (a.u.)
# binding signal with GCTGATGACTTTTCTCCCGGTTTCATATTTTCTTTTAGAACGGAGTCACCTAGTGCAG reads 14100 fluorescence intensity (a.u.)

# (further entries)

row,Sequence,binding signal
1,CGGGTGGTTTTCCATCGGTCCGGGCGGGGTCGCGTGCAATCGGAGTCACCTAGTGCAG,12500 fluorescence intensity (a.u.)
2,TATATATGCGGTTGGTCAGGCACTCCGGTCGTCTTCCTCGCGGAGTCACCTAGTGCAG,8550 fluorescence intensity (a.u.)
3,TATTTTCGTCCGGTTTTTTCCACTCACCAGTCACCACCCCCGGAGTCACCTAGTGCAG,8490 fluorescence intensity (a.u.)
4,CCATAGCAAGCAATTTGTCTAAAACTACCTGTCCTTTCATCGGAGTCACCTAGTGCAG,8660 fluorescence intensity (a.u.)
5,CCAGTTCATCCAGGGTCCACTTCCTCTACCCAGCTCCACTCGGAGTCACCTAGTGCAG,9040 fluorescence intensity (a.u.)
6,CCCATGTCCCATTTTAGATCCGCCACTGCCTATTCTATCTCGGAGTCACCTAGTGCAG,9030 fluorescence intensity (a.u.)
7,CGCTGCTCTTCTCTTTTACTTTATCTCTTTAAAATATGTTCGGAGTCACCTAGTGCAG,8830 fluorescence intensity (a.u.)
8,TATTATCTTCCGTAAGTTGCACACAAGACCTTTATTTTATCGGAGTCACCTAGTGCAG,8900 fluorescence intensity (a.u.)
9,CTCCGCCATTCCCGCACCACATGCCGCTCTATCTCTCTCTCGGAGTCACCTAGTGCAG,12200 fluorescence intensity (a.u.)
10,AATTATTTTTCACTTTATCTACTTCCAATATAATTATTCTCGGAGTCACCTAGTGCAG,9140 fluorescence intensity (a.u.)
11,CTCTATCCTTAATTTTACAGCTGTTCTATAGAATGCAACACGGAGTCACCTAGTGCAG,8910 fluorescence intensity (a.u.)
12,GTTTTCTTCATGTGTTAACAATTGGCCAGCTTCAATCTGCCGGAGTCACCTAGTGCAG,10000 fluorescence intensity (a.u.)
13,CAGATGTTCTCCTGTTAAATGTCGCTTTTATAAATACCTCCGGAGTCACCTAGTGCAG,8480 fluorescence intensity (a.u.)
14,CGGCCGTCCGCCATCTGCAAAAGGTGTTTTTTCACATGCCCGGAGTCACCTAGTGCAG,8560 fluorescence intensity (a.u.)
15,TTCATCTTCATGCCTCCGTCGTCCTCCTAGTCCTCATCTCCGGAGTCACCTAGTGCAG,8440 fluorescence intensity (a.u.)
16,GATTCCGATCTGTACTATGTTTGTAGGGTTTGTATTTTTTCGGAGTCACCTAGTGCAG,8840 fluorescence intensity (a.u.)
17,AGGAGACGAGAGAGAGAGAGGGGAGGGGAGTGTGATGTGGCGGAGTCACCTAGTGCAG,8350 fluorescence intensity (a.u.)
18,GCTTACGTAGTACTCCATCATCTGCTCTTTTTCCTAACCACGGAGTCACCTAGTGCAG,12800 fluorescence intensity (a.u.)
19,TTTTGCCTAGTTCTCGTGTTGATTGTTGCCTAAGAAAGGACGGAGTCACCTAGTGCAG,9580 fluorescence intensity (a.u.)
20,CTAGTTTTGTTTCTTCACACCTTGCATGGCTTGCTCCTTTCGGAGTCACCTAGTGCAG,9790 fluorescence intensity (a.u.)
21,CATCCTCGAGAGCGTCTCCCTCGTCGCCCTATTCCTCTTACGGAGTCACCTAGTGCAG,10200 fluorescence intensity (a.u.)
